The results in this text go back to paper PMC9278747.

The chains behind the UniProt entries cited, without tags or fusion partners. Where a name states a change or a piece, a line headed by the entry shows the natural chain unless it says otherwise.
UniProt Q03823: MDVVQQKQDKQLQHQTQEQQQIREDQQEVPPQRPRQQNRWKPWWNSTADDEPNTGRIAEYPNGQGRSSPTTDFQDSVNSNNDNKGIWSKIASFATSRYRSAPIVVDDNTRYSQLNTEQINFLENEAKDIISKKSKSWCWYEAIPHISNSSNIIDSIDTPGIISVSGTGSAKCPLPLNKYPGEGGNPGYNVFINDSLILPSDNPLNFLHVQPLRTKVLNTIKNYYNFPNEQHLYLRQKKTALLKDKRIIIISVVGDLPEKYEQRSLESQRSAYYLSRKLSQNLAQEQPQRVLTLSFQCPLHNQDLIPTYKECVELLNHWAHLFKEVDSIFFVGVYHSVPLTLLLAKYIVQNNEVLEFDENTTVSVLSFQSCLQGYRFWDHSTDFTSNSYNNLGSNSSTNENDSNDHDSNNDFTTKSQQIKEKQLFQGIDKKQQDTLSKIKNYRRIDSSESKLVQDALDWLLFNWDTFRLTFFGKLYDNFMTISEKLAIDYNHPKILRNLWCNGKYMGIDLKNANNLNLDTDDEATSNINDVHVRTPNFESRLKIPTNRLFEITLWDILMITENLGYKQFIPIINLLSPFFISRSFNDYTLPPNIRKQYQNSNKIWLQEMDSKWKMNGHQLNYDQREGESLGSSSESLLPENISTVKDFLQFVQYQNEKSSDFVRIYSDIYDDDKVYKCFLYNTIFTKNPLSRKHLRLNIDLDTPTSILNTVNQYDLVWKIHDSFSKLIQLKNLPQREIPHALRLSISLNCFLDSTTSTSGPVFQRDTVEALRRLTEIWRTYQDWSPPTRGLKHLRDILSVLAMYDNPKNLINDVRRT

Experiment [1] has as its target OtUBD resin (Cys-OtUBD or Cys-His6-OtUBD covalently linked to SulfoLink resin) (Orientia tsutsugamushi) (UniProt B3CVM3). Kind of experiment: affinity purification with mass spectrometry; OtUBD pulldown samples of yeast, LC-MS/MS, GG-peptide assignment validated by hand; native or denaturing condition not told; only the target purified.
The target is the same in experiment [2]. The experiment in a line: affinity purification with mass spectrometry; OtUBD resin pulldowns of urea-denatured yeast lysates (the 'ubiquitylome'), low pH elution, trypsin digestion, LC-MS/MS; control SulfoLink resin without OtUBD in parallel; only the target purified.

Results are given in words; binding and its absence hold for the method and conditions named. In cells and extracts the contact can be indirect. A yes stands for co-enrichment or nearness to the bait. Other partners may have been found.

As for “YMR160W with a GG remnant on T534 (nonlysine ubiquitylation site) (from UniProt Q03823 1-816; P0CG63 1-76)”, the binding result in experiment [1] is listed as “binds”.

B1: Cdc53 (yeast cullin) as found in the OtUBD-defined ubiquitylome (protein, UniProt Q12018 1-815)
chain: MSETLPRSDDLEATWNFIEPGINQILGNEKNQASTSKRVYKILSPTMYMEVYTAIYNYCVNKSRSSGHFSTDSRTGQSTILVGSEIYEKLKNYLKNYILNFKQSNSETFLQFYVKRWKRFTIGAIFLNHAFDYMNRYWVQKERSDGKRHIFDVNTLCLMTWKEVMFDPSKDVLINELLDQVTLGREGQIIQRSNISTAIKSLVALGIDPQDLKKLNLNVYIQVFEKPFLKKTQEYYTQYTNDYLEKHSVTEYIFEAHEIIKREEKAMTIYWDDHTKKPLSMALNKVLITDHIEKLENEFVVLLDARDIEKITSLYALIRRDFTLIPRMASVFENYVKKTGENEISSLLAMHKHNIMKNENANPKKLALMTAHSLSPKDYIKKLLEVHDIFSKIFNESFPDDIPLAKALDNACGAFININEFALPAGSPKSATSKTSEMLAKYSDILLKKATKPEVASDMSDEDIITIFKYLTDKDAFETHYRRLFAKRLIHGTSTSAEDEENIIQRLQAANSMEYTGKITKMFQDIRLSKILEDDFAVALKNEPDYSKAKYPDLQPFVLAENMWPFSYQEVEFKLPKELVPSHEKLKESYSQKHNGRILKWLWPLCRGELKADIGKPGRMPFNFTVTLFQMAILLLYNDADVLTLENIQEGTSLTIQHIAAAMVPFIKFKLIQQVPPGLDALVKPETQFKLSRPYKALKTNINFASGVKNDILQSLSGGGHDNHGNKLGNKRLTEDERIEKELNTERQIFLEACIVRIMKAKRNLPHTTLVNECIAQSHQRFNAKVSMVKRAIDSLIQKGYLQRGDDGESYAYLA
Regarding B1, the binding entry in experiment [2] is recorded as “binds”.

B2: Cul3 (yeast cullin) as found in the OtUBD-defined ubiquitylome (protein, UniProt P53202 1-744)
chain: MITNKKIKISVPEKLGLSEESFEESWETVKYAIDHIYSDDMADLSFEQVYKTIYTIVLNKKGPILYNRLKDYLIQKLALLRETIVKDNTHDYEFLGTMARLWEVQCHCFKITGDLMMYMDKVYCKPNRCMEVYDMCLDLFRIEILQKCSSSLISALISDIERIRNLGSVDSEHTSLWKVLIGMMETLHDNRDSFFLTDFEPVLISATEEYYNKAIDIELLTPIESLEKIRKLRQFESMLDSSFLNVDSHNKLKTVLENVLIWGKLSDIIEDLTHEAMVISNGKLLQEIYDLSSEEKYRVTVIESIKSYINKNAINIPFNEGNRKKGQNAITWSSEIVELYRSQHSFLESIDFGSVRLNNLTGDVSNAILGDVFSMYFSKEGALPSEYLSTYVDHCMKRTKEKDAEIVKIKQDLLDSTKLIGLLTEKDIFEKIYKKQLSRRLLQQRSLVEIEKWMVQMIKKVLGTFFTSKLEIMLRDISLSSEMYQAFQHSTINSIEYLSFAPQVLTRTSWPFQSTNPIDEGISLPPRMSQILAGFEGYYSLKYKERVLKWAHHLSVIEIGCQFNSGYYEISFSVYAGVIFLLFEDYEELTLGEIYELTHIPIDDVKSLVMSMSTIPRCKILKKSSSSGNMKFSVNYFFSSPNRKVKVPVIACPLPSQKSDNLATASSVDTYDNEIVMELSAIIVRIMKTEGKLSHQQLLERTTKRTQSRLSLTPSILKRSIQLLIEKEYIQRNADDPSYYHYLS
On to B2, for which the binding entry in experiment [2] is given as “binds”.

B3: Rub1 (yeast Nedd8) (protein, UniProt Q03919 1-77)
chain: MIVKVKTLTGKEISVELKESDLVYHIKELLEEKEGIPPSQQRLIFQGKQIDDKLTVTDAHLVEGMQLHLVLTLRGGN
For B3, in experiment [2], the binding result was “binds”.

B4: Rtt101 (yeast cullin) as found in the OtUBD-defined ubiquitylome (protein, UniProt P47050 1-842)
chain: MINESVSKREGFHESISRETSASNALGLYNKFNDERNPRYRTMIAELHEFFHLTLAETITETDVKELECNKEKAAKFRKLMPKMLNNCRELTQRKSYIPYNSEFNGNDEKQKKFQLLHQHQIVLSFQEFCDELAKLIIDAHVLSFLTRCDYSYEIIPKNWTSFYKLFQYVMGAVGPIISYVPVNYPMIRKELGFETLTIFQYYDSKLFECMKSHFGREFSTLVSATIHHYIHMFPITNTMLEKEVPMLRIMSNCNFSIEGLSPKDFYMKTLRQYYCEESNLRPRLETFKNFKVLLTRNALLASLFSPEWVSDANDLFISHLLLNKKSISEYIEIGKDTYDEEKERYFKTETHFSLLMFRNAFEAKNMLSKFKEFCDDAVSEKLKAAYGSNHDTERLFDEVVQLANVDHLKIYSDSIEYHLCNLLGSTSKAIEQYVKYFESHLFIIVRKIKTTKKDLPRDMKIKYLNENLPILRLKFVNLPTFPNFFERSIFRKTILQSDQNSSFIKDILPVYKDSLMELFKQRIITNVSQEDEMRYRDQYQPYLSQFFQPVEVMADLRIKYASFLSFYENIEAAVKFGKTYNENNSKSFFPLIFDRERIPKVFQQSNEVKKNFVLPQEMDDTWNQFLRNYHEQNKVEDSDASKKELYPMWNLHHCEVESPYIIQDGTNLIFELTLFQTCVLTLFNESDHLTLQVISEQTKLAYKDLALVLKSFCNYKILTRDIDNTYSINESFKPDMKKVKNGKLRVVLPRTASLQSSNTGGERTSSAHHEGSNSQWTQELLKACITRSVKSERNGLDYDHLFETVKQQIKGFSVGEFKDALAKLLRDKFITRDESTATYKY
As for B4, the binding entry in experiment [2] is “binds”.
